PubChem BioAssay AID1259424, University of Nebraska Medical Center, 2018

Assay: 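Seek colon cancer survival genes behaving like KSR1, using a six-gene signature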 (primary screen)
Cells: human HCT116 colon cancer cells
Reagent: siRNA pool against human genes, 50 nM
Read-out: 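Log2 levels of six mRNAs (branched-DNA multiplex), adjusted by two reference genes and the non-targeting median, then scored against the average KSR1 knockdown pattern as Pearson r and euclidean distance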
Direction: mean correlation with KSR1 profile: higher = expression change more like KSR1 knockdown
Shown is a random part of about 14,000 deposited reagents. 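Higher correlation or smaller distance means closer resemblance to KSR1 loss; control wells, including KSR1 knockdowns, recur on many plates.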 A reagent listed more than once was tested more than once; the source does not tell the runs apart. Further read-outs or replicates are left out here. The record does not give: the time to read-out.

How did the screen score NOP58 (NOP58 ribonucleoprotein)?
mean correlation with KSR1 profile: -0.908

For LHX4 (LIM homeobox 4), what was measured?
mean correlation with KSR1 profile: 0.103

Which result is listed for FGFR3 (fibroblast growth factor receptor 3)?
mean correlation with KSR1 profile: 0.454

For VAMP2 (vesicle associated membrane protein 2), what was measured?
mean correlation with KSR1 profile: 0.168

How did the screen score ELK4 (ETS transcription factor ELK4)?
mean correlation with KSR1 profile: 0.606

What is on record for RGS7 (regulator of G protein signaling 7)?
mean correlation with KSR1 profile: 0.332

For IGKC (immunoglobulin kappa constant), how do the results read?
mean correlation with KSR1 profile: 0.561

For DMRT2 (doublesex and mab-3 related transcription factor 2), what does the deposit list?
mean correlation with KSR1 profile: -0.826

For CACNA1S (calcium voltage-gated channel subunit alpha1 S), what was measured?
mean correlation with KSR1 profile: 0.0157

Which result is listed for CHCHD5 (coiled-coil-helix-coiled-coil-helix domain containing 5)?
mean correlation with KSR1 profile: 0.768

With APRT (adenine phosphoribosyltransferase), what does the deposit list?
mean correlation with KSR1 profile: 0.137

With RENBP (renin binding protein), what does the deposit list?
mean correlation with KSR1 profile: -0.75

For FHL5 (four and a half LIM domains 5), how do the results read?
mean correlation with KSR1 profile: 0.198

What did the screen give for DECR1 (2,4-dienoyl-CoA reductase 1)?
mean correlation with KSR1 profile: -0.18

With AKR1B10 (aldo-keto reductase family 1 member B10), what does the deposit list?
mean correlation with KSR1 profile: 0.246

With PRSS3 (serine protease 3), what was measured?
mean correlation with KSR1 profile: 0.369

For CSRP2 (cysteine and glycine rich protein 2), what was measured?
mean correlation with KSR1 profile: 0.182

Which result is listed for PIK3CG?
mean correlation with KSR1 profile: 0.735

What is on record for PIK3CG?
mean correlation with KSR1 profile: 0.794

Which result is listed for RCBTB2 (RCC1 and BTB domain containing protein 2)?
mean correlation with KSR1 profile: 0.183

What did the screen give for CHRD (chordin)?
mean correlation with KSR1 profile: -0.865

With RPTOR (regulatory associated protein of MTOR complex 1), what was measured?
mean correlation with KSR1 profile: -0.54

5 consecutive records from above, quoted:
FGFR3 (fibroblast growth factor receptor 3) — mean correlation with KSR1 profile = 0.454
VAMP2 (vesicle associated membrane protein 2) — mean correlation with KSR1 profile = 0.168
ELK4 (ETS transcription factor ELK4) — mean correlation with KSR1 profile = 0.606
RGS7 (regulator of G protein signaling 7) — mean correlation with KSR1 profile = 0.332
IGKC (immunoglobulin kappa constant) — mean correlation with KSR1 profile = 0.561

Next results follow:
With KRT33B (keratin 33B), what was measured?
mean correlation with KSR1 profile: -0.632

For RDH8 (retinol dehydrogenase 8), what was measured?
mean correlation with KSR1 profile: 0.492

For KLHL9 (kelch like family member 9), how do the results read?
mean correlation with KSR1 profile: -0.362

With TMEM63B (transmembrane protein 63B), how do the results read?
mean correlation with KSR1 profile: -0.301

What did the screen give for APEX2 (apurinic/apyrimidinic endodeoxyribonuclease 2)?
mean correlation with KSR1 profile: 0.091

With RAB3IL1 (RAB3A interacting protein like 1), what does the deposit list?
mean correlation with KSR1 profile: -0.51

Which result is listed for ARPC5L (actin related protein 2/3 complex subunit 5 like)?
mean correlation with KSR1 profile: 0.729

With KCNS1, how do the results read?
mean correlation with KSR1 profile: -0.0199

With SOX15 (SRY-box transcription factor 15), what was measured?
mean correlation with KSR1 profile: 0.285

How did the screen score DGKD (diacylglycerol kinase delta)?
mean correlation with KSR1 profile: 0.205

How did the screen score PRKCD (protein kinase C delta)?
mean correlation with KSR1 profile: 0.254

What is on record for C1S (complement C1s)?
mean correlation with KSR1 profile: -0.415

What is on record for CXCR4 (C-X-C motif chemokine receptor 4)?
mean correlation with KSR1 profile: 0.637

What did the screen give for CCDC54 (coiled-coil domain containing 54)?
mean correlation with KSR1 profile: 0.454
